Further values from the same series stand in other lists.
System: HEK293T nuclear lysates
Experiment: SILAC‐based pull‐down proteomics H4K5me1/H4K5 (probes 6/5)
Assay type: binding, human

probe 6: H4K5me peptide probe with photo‐arginine R(dz) and K(biotin) (SGRGKGGKGLGKGGK; photo-arginine R(dz) at 3; monomethyl-lysine at 5; K(biotin) at 15)
C6 log (H4K5me/H4K5) (protein TARDBP (A0A087WX29), run C6): 0.06408 | B6 log2 (H4K5me/H4K5) (protein TBC1D10B (Q4KMP7), SILAC run B6): -0.82 | C6 log (H4K5me/H4K5) (protein TBC1D10B (Q4KMP7), SILAC run C6): -0.8332 | B6 log2 (H4K5me/H4K5) (protein TBL1X (O60907), SILAC run B6): -0.4337 | C6 log (H4K5me/H4K5) (protein TBL1X (O60907), SILAC run C6): 0.1566 | B6 log2 (H4K5me/H4K5) (protein TCOF1 (E7ETY2), run B6): 0.06374 | C6 log (H4K5me/H4K5) (protein TCOF1 (E7ETY2), run C6): 0.06778 | B6 log2 (H4K5me/H4K5) (protein TDP2 (O95551), SILAC run B6): -0.2347 | C6 log (H4K5me/H4K5) (protein TDP2 (O95551), SILAC run C6): -0.3371 | B6 log2 (H4K5me/H4K5) (protein TFCP2 (Q12800), SILAC run B6): -0.226 | C6 log (H4K5me/H4K5) (protein TFCP2 (Q12800), SILAC run C6): -0.1433 | B6 log2 (H4K5me/H4K5) (protein THOC3 (Q96J01), run B6): -0.02427 | C6 log (H4K5me/H4K5) (protein THOC3 (Q96J01), run C6): -0.4251 | B6 log2 (H4K5me/H4K5) (protein TKT (P29401), run B6): -0.001446 | C6 log (H4K5me/H4K5) (protein TKT (P29401), run C6): -0.309 | B6 log2 (H4K5me/H4K5) (protein TLK1 (Q9UKI8), SILAC run B6): -0.3264 | C6 log (H4K5me/H4K5) (protein TLK1 (Q9UKI8), SILAC run C6): -0.3771 | B6 log2 (H4K5me/H4K5) (protein TMOD3 (Q9NYL9), SILAC run B6): -0.3085 | C6 log (H4K5me/H4K5) (protein TMOD3 (Q9NYL9), SILAC run C6): -1.063 | B6 log2 (H4K5me/H4K5) (protein TNPO1 (Q92973), run B6): 0.003426 | C6 log (H4K5me/H4K5) (protein TNPO1 (Q92973), run C6): 0.2807 | B6 log2 (H4K5me/H4K5) (protein TOP2B (Q02880), SILAC run B6): -0.2407 | C6 log (H4K5me/H4K5) (protein TOP2B (Q02880), SILAC run C6): 0.0006504 | B6 log2 (H4K5me/H4K5) (protein TOR1AIP1 (J3KN66), run B6): 0.005639 | C6 log (H4K5me/H4K5) (protein TOR1AIP1 (J3KN66), run C6): 0.2183 | B6 log2 (H4K5me/H4K5) (protein TOX4 (O94842), run B6): 0.03209 | C6 log (H4K5me/H4K5) (protein TOX4 (O94842), run C6): 0.01294 | B6 log2 (H4K5me/H4K5) (protein TPR (P12270), SILAC run B6): -0.2081 | C6 log (H4K5me/H4K5) (protein TPR (P12270), SILAC run C6): -0.1529 | B6 log2 (H4K5me/H4K5) (protein TRA2B (P62995), run B6): 0.09147 | C6 log (H4K5me/H4K5) (protein TRA2B (P62995), run C6): -0.2447 | B6 log2 (H4K5me/H4K5) (protein TUBB4A (P04350), run B6): 0.09667 | C6 log (H4K5me/H4K5) (protein TUBB4A (P04350), run C6): -0.1168 | B6 log2 (H4K5me/H4K5) (protein TUBB (P07437), run B6): -0.003096 | C6 log (H4K5me/H4K5) (protein TUBB (P07437), run C6): -0.1261 | B6 log2 (H4K5me/H4K5) (protein TUFM (P49411), run B6): 0.05599 | C6 log (H4K5me/H4K5) (protein TUFM (P49411), run C6): 0.129 | B6 log2 (H4K5me/H4K5) (protein TWISTNB (Q3B726), SILAC run B6): -0.295 | C6 log (H4K5me/H4K5) (protein TWISTNB (Q3B726), SILAC run C6): -0.2962 | B6 log2 (H4K5me/H4K5) (protein U2AF2 (P26368), run B6): 0.04128 | C6 log (H4K5me/H4K5) (protein U2AF2 (P26368), run C6): -0.06874 | B6 log2 (H4K5me/H4K5) (protein U3KQC1 WDR18, run B6): 0.3185 | C6 log (H4K5me/H4K5) (protein U3KQC1 WDR18, run C6): 0.3711 | B6 log2 (H4K5me/H4K5) (protein UBXN7 (O94888), run B6): -0.000976 | C6 log (H4K5me/H4K5) (protein UBXN7 (O94888), run C6): -0.03102 | B6 log2 (H4K5me/H4K5) (protein UHRF1 (Q96T88), run B6): 0.09349 | C6 log (H4K5me/H4K5) (protein UHRF1 (Q96T88), run C6): -0.03299 | B6 log2 (H4K5me/H4K5) (protein UIMC1 (Q96RL1), run B6): 0.08201 | C6 log (H4K5me/H4K5) (protein UIMC1 (Q96RL1), run C6): 0.1173 | B6 log2 (H4K5me/H4K5) (protein USP7 (Q93009), run B6): 0.01798 | C6 log (H4K5me/H4K5) (protein USP7 (Q93009), run C6): 0.1122 | B6 log2 (H4K5me/H4K5) (protein USP48 (Q86UV5), run B6): 0.08212 | C6 log (H4K5me/H4K5) (protein USP48 (Q86UV5), run C6): 0.1334 | B6 log2 (H4K5me/H4K5) (protein UTP18 (Q9Y5J1), run B6): 0.0224 | C6 log (H4K5me/H4K5) (protein UTP18 (Q9Y5J1), run C6): 0.05862 | B6 log2 (H4K5me/H4K5) (protein VBP1 (P61758), SILAC run B6): -0.3433 | C6 log (H4K5me/H4K5) (protein VBP1 (P61758), SILAC run C6): 0.1802 | B6 log2 (H4K5me/H4K5) (protein VCP (P55072), run B6): -0.006138 | C6 log (H4K5me/H4K5) (protein VCP (P55072), run C6): -0.1903 | B6 log2 (H4K5me/H4K5) (protein VDAC2 (A0A0A0MR02), run B6): 0.02708 | C6 log (H4K5me/H4K5) (protein VDAC2 (A0A0A0MR02), run C6): -0.1746 | B6 log2 (H4K5me/H4K5) (protein VEZF1 (J3QSH4), run B6): 0.03466 | C6 log (H4K5me/H4K5) (protein VEZF1 (J3QSH4), run C6): -0.1124 | B6 log2 (H4K5me/H4K5) (protein WDHD1 (O75717), run B6): 0.007853 | C6 log (H4K5me/H4K5) (protein WDHD1 (O75717), run C6): -0.06137 | B6 log2 (H4K5me/H4K5) (protein WDR70 (Q9NW82), SILAC run B6): -0.4594 | C6 log (H4K5me/H4K5) (protein WDR70 (Q9NW82), SILAC run C6): -0.2575 | B6 log2 (H4K5me/H4K5) (protein WDR75 (Q8IWA0), run B6): -0.006599 | C6 log (H4K5me/H4K5) (protein WDR75 (Q8IWA0), run C6): -0.0202 | B6 log2 (H4K5me/H4K5) (protein X6RGJ2 HP1BP3, run B6): 0.285 | C6 log (H4K5me/H4K5) (protein X6RGJ2 HP1BP3, run C6): 0.001942 | B6 log2 (H4K5me/H4K5) (protein XRCC1 (P18887), run B6): 0.0923 | C6 log (H4K5me/H4K5) (protein XRCC1 (P18887), run C6): 0.008144 | B6 log2 (H4K5me/H4K5) (protein YBX1 (P67809), SILAC run B6): -0.2509 | C6 log (H4K5me/H4K5) (protein YBX1 (P67809), SILAC run C6): -0.05048 | B6 log2 (H4K5me/H4K5) (protein YEATS4 (O95619), run B6): 0.09899 | C6 log (H4K5me/H4K5) (protein YEATS4 (O95619), run C6): 0.2125 | B6 log2 (H4K5me/H4K5) (protein YWHAG (P61981), SILAC run B6): -0.4802 | C6 log (H4K5me/H4K5) (protein YWHAG (P61981), SILAC run C6): 0.4619 | B6 log2 (H4K5me/H4K5) (protein YWHAQ (P27348), run B6): 0.0723 | C6 log (H4K5me/H4K5) (protein YWHAQ (P27348), run C6): 0.2364 | B6 log2 (H4K5me/H4K5) (protein YWHAZ (P63104), run B6): 0.07401 | C6 log (H4K5me/H4K5) (protein YWHAZ (P63104), run C6): 0.1135 | B6 log2 (H4K5me/H4K5) (protein YY1 (P25490), run B6): 0.09671 | C6 log (H4K5me/H4K5) (protein YY1 (P25490), run C6): 0.04048 | B6 log2 (H4K5me/H4K5) (protein ZC3H11A (O75152), run B6): 0 | C6 log (H4K5me/H4K5) (protein ZC3H11A (O75152), run C6): 0.04185 | B6 log2 (H4K5me/H4K5) (protein ZC3HC1 (C9J0I9), SILAC run B6): -0.683 | C6 log (H4K5me/H4K5) (protein ZC3HC1 (C9J0I9), SILAC run C6): -0.5791 | B6 log2 (H4K5me/H4K5) (protein ZFP64 (Q9NTW7), SILAC run B6): -0.2268 | C6 log (H4K5me/H4K5) (protein ZFP64 (Q9NTW7), SILAC run C6): -1.0269 | B6 log2 (H4K5me/H4K5) (protein ZFP91 isoform 2 (Q96JP5-2), SILAC run B6): -0.3672 | C6 log (H4K5me/H4K5) (protein ZFP91 isoform 2 (Q96JP5-2), SILAC run C6): -0.1238 | B6 log2 (H4K5me/H4K5) (protein ZFR (Q96KR1), run B6): 0.0403 | C6 log (H4K5me/H4K5) (protein ZFR (Q96KR1), run C6): 0.1982 | B6 log2 (H4K5me/H4K5) (protein ZHX1 (Q9UKY1), SILAC run B6): -0.3172 | C6 log (H4K5me/H4K5) (protein ZHX1 (Q9UKY1), SILAC run C6): -0.5679 | B6 log2 (H4K5me/H4K5) (protein ZMYM4 (Q5VZL5), SILAC run B6): -0.2861 | C6 log (H4K5me/H4K5) (protein ZMYM4 (Q5VZL5), SILAC run C6): 0.08954 | B6 log2 (H4K5me/H4K5) (protein ZNF24 (P17028), run B6): 0.1129 | C6 log (H4K5me/H4K5) (protein ZNF24 (P17028), run C6): 0.3732 | B6 log2 (H4K5me/H4K5) (protein ZNF316 (A6NFI3), run B6): 0.0298 | C6 log (H4K5me/H4K5) (protein ZNF316 (A6NFI3), run C6): -0.006067 | B6 log2 (H4K5me/H4K5) (protein ZNF512B (Q96KM6), SILAC run B6): -0.6169 | C6 log (H4K5me/H4K5) (protein ZNF512B (Q96KM6), SILAC run C6): -0.2219 | B6 log2 (H4K5me/H4K5) (protein ZNF579 (Q8NAF0), SILAC run B6): -0.2819 | C6 log (H4K5me/H4K5) (protein ZNF579 (Q8NAF0), SILAC run C6): -0.3049 | B6 log2 (H4K5me/H4K5) (protein ZNF629 (Q9UEG4), SILAC run B6): -0.2437 | C6 log (H4K5me/H4K5) (protein ZNF629 (Q9UEG4), SILAC run C6): -0.1864 | B6 log2 (H4K5me/H4K5) (protein ZNF768 (Q9H5H4), run B6): 0.0005657 | C6 log (H4K5me/H4K5) (protein ZNF768 (Q9H5H4), run C6): -0.2203 | B6 log2 (H4K5me/H4K5) (protein ZNF787 (Q6DD87), run B6): 0.03483 | C6 log (H4K5me/H4K5) (protein ZNF787 (Q6DD87), run C6): -0.4189
